Measured values taken from PubChem BioAssay AID248 (DTP/NCI, 2004).
The list shows only some results of the screen, not a fair sample: it gathers some chemical classes. Other doses and runs of a compound may be missing. T/C gives the treated animals as a percentage of the vehicle group. For survival time, the PubChem record calls one and a half times the control and up active, and a quarter to a half above the control has no call in these data; cut-offs in other NCI protocols can differ. Some T/C values are marked as having no survivor count here; that says nothing about deaths at the dose. Schedules are NCI's codes, taken here to give the interval after Q, in days (D) or hours (H), and the number of doses after X. Some entries hold several experiments; the values are given in rising order. Some schedules carry Z or #; the key to these is not given.

Tested on: L1210 leukemia ip in BDF1 mice, survival T/C
Assay: NCI In Vivo Anticancer Drug Screen. Data for tumor model L1210 Leukemia (intraperitoneal) in B6D2F1 (BDF1) mice
Conditions: T/C endpoint: mean survival time, higher T/C = longer survival

SMILES: NC(Cc1ccccc1N(CCCl)CCCl)C(=O)O (stereo unspecified)
- T/C (dose: 1.6 mg/kg/injection, schedule: Q01DX009 (sc), vehicle: saline): 132 % of control [survivor count not shown]
- T/C (dose: 1.6 mg/kg/injection, schedule: Q03HX008 (ip), vehicle: saline): 117 % of control [survivor count not shown]
- T/C (dose: 1.75 mg/kg/injection, schedule: Q01DX001 (ip), vehicle: carboxymethylcellulose (CMC)): 112 [survivor count not shown] and 131 % of control [survivor count not shown]
- T/C (dose: 1.75 mg/kg/injection, schedule: Q07DX Z (ip), vehicle: carboxymethylcellulose (CMC)): 178 % of control [survivor count not shown]
- T/C (dose: 2.0 mg/kg/injection, schedule: Q01DX001 (ip), vehicle: saline): 137 % of control [survivor count not shown]
- T/C (dose: 2.0 mg/kg/injection, schedule: Q01DX006 (iv), vehicle: carboxymethylcellulose (CMC)): 111 % of control [survivor count not shown]
- T/C (dose: 2.0 mg/kg/injection, schedule: Q01DX010 (ip), vehicle: saline): 94 % of control [survivor count not shown]
- T/C (dose: 2.0 mg/kg/injection, schedule: Q01DX Z (im), vehicle: carboxymethylcellulose (CMC)): 129 % of control [survivor count not shown]
- T/C (dose: 2.0 mg/kg/injection, schedule: Q01DX Z (ip), vehicle: carboxymethylcellulose (CMC)): 124 % of control [survivor count not shown]
- T/C (dose: 2.0 mg/kg/injection, schedule: Q01DX Z (ip), vehicle: methylcellulose (MC)): 119 % of control [survivor count not shown]
- T/C (dose: 2.0 mg/kg/injection, schedule: Q01DX Z (oral), vehicle: carboxymethylcellulose (CMC)): 92 % of control [survivor count not shown]
- T/C (dose: 2.0 mg/kg/injection, schedule: Q01DX Z (sc), vehicle: carboxymethylcellulose (CMC)): 140 % of control [survivor count not shown]
- T/C (dose: 2.0 mg/kg/injection, schedule: Q03HX016 (ip), vehicle: saline): 125 % of control [survivor count not shown]
- T/C (dose: 2.0 mg/kg/injection, schedule: Q03HX024 (ip), vehicle: saline): 148 % of control [survivor count not shown]
- T/C (dose: 2.0 mg/kg/injection, schedule: Q03HX024 (oral), vehicle: saline): 115 % of control [survivor count not shown]
- T/C (dose: 2.0 mg/kg/injection, schedule: Q04DX003 (ip), vehicle: saline): 198 % of control [survivor count not shown]
- T/C (dose: 2.0 mg/kg/injection, schedule: Q04DX003 (oral), vehicle: saline): 115 % of control [survivor count not shown]
- T/C (dose: 2.0 mg/kg/injection, schedule: Q08DX002 (ip), vehicle: saline): 129 [survivor count not shown] and 223 % of control [survivor count not shown]
- T/C (dose: 2.0 mg/kg/injection, schedule: Q08DX002 (oral), vehicle: saline): 112 % of control [survivor count not shown]
- T/C (dose: 2.4 mg/kg/injection, schedule: Q03HX024 (ip), vehicle: saline): 130 % of control [survivor count not shown]
- T/C (dose: 2.4 mg/kg/injection, schedule: Q04DX003 (ip), vehicle: saline): 161 % of control [survivor count not shown]
- T/C (dose: 2.8 mg/kg/injection, schedule: Q01DX001 (sc), vehicle: saline): 97 % of control [survivor count not shown]
- T/C (dose: 3.2 mg/kg/injection, schedule: Q01DX001 (ip), vehicle: saline): 130 % of control [survivor count not shown]
- T/C (dose: 3.2 mg/kg/injection, schedule: Q01DX001 (oral), vehicle: saline): 104 % of control [survivor count not shown]
- T/C (dose: 3.2 mg/kg/injection, schedule: Q01DX009 (sc), vehicle: saline): 164 % of control [survivor count not shown]
- T/C (dose: 3.2 mg/kg/injection, schedule: Q03HX008 (ip), vehicle: saline): 124 % of control [survivor count not shown]
- T/C (dose: 3.5 mg/kg/injection, schedule: Q01DX001 (ip), vehicle: carboxymethylcellulose (CMC)): 146 [survivor count not shown], 151 [survivor count not shown], 238 % of control [survivor count not shown]
- T/C (dose: 3.5 mg/kg/injection, schedule: Q07DX Z (ip), vehicle: carboxymethylcellulose (CMC)): 236 [survivor count not shown] and 247 % of control [survivor count not shown]
- T/C (dose: 4.0 mg/kg/injection, schedule: Q01DX001 (ip), vehicle: saline): 249 % of control [survivor count not shown]
- T/C (dose: 4.0 mg/kg/injection, schedule: Q01DX006 (iv), vehicle: carboxymethylcellulose (CMC)): 137 [survivor count not shown] and 177 % of control [survivor count not shown]
- T/C (dose: 4.0 mg/kg/injection, schedule: Q01DX Z (im), vehicle: carboxymethylcellulose (CMC)): 88 [survivor count not shown] and 137 % of control [survivor count not shown]
- T/C (dose: 4.0 mg/kg/injection, schedule: Q01DX Z (oral), vehicle: carboxymethylcellulose (CMC)): 86 % of control [survivor count not shown]
- T/C (dose: 4.0 mg/kg/injection, schedule: Q01DX Z (sc), vehicle: carboxymethylcellulose (CMC)): 107 [survivor count not shown] and 124 % of control [survivor count not shown]
- T/C (dose: 4.0 mg/kg/injection, schedule: Q03HX016 (ip), vehicle: saline): 141 [survivor count not shown] and 244 % of control [survivor count not shown]
- T/C (dose: 4.0 mg/kg/injection, schedule: Q03HX024 (ip), vehicle: saline): 275 % of control [survivor count not shown]
- T/C (dose: 4.0 mg/kg/injection, schedule: Q03HX024 (oral), vehicle: saline): 117 % of control [survivor count not shown]
- T/C (dose: 4.0 mg/kg/injection, schedule: Q04DX003 (ip), vehicle: saline): 119 % of control [survivor count not shown]
- T/C (dose: 4.0 mg/kg/injection, schedule: Q04DX003 (oral), vehicle: saline): 137 % of control [survivor count not shown]
- T/C (dose: 4.0 mg/kg/injection, schedule: Q08DX002 (ip), vehicle: saline): 201 [survivor count not shown] and 207 % of control [survivor count not shown]
- T/C (dose: 4.0 mg/kg/injection, schedule: Q08DX002 (oral), vehicle: saline): 100 % of control [survivor count not shown]
- T/C (dose: 5.6 mg/kg/injection, schedule: Q01DX001 (sc), vehicle: saline): 122 % of control [survivor count not shown]
- T/C (dose: 6.4 mg/kg/injection, schedule: Q01DX001 (ip), vehicle: saline): 198 % of control [survivor count not shown]
- T/C (dose: 6.4 mg/kg/injection, schedule: Q01DX001 (oral), vehicle: saline): 112 % of control [survivor count not shown]
- T/C (dose: 6.4 mg/kg/injection, schedule: Q03HX008 (ip), vehicle: saline): 144 % of control [survivor count not shown]
- T/C (dose: 7.0 mg/kg/injection, schedule: Q01DX001 (ip), vehicle: carboxymethylcellulose (CMC)): 156 [survivor count not shown] and 162 % of control [survivor count not shown]
- T/C (dose: 8.0 mg/kg/injection, schedule: Q01DX001 (oral), vehicle: saline): 108 % of control [survivor count not shown]
- T/C (dose: 8.0 mg/kg/injection, schedule: Q01DX006 (iv), vehicle: carboxymethylcellulose (CMC)): 101 % of control [survivor count not shown]
- T/C (dose: 8.0 mg/kg/injection, schedule: Q03HX008 (ip), vehicle: saline): 232 % of control [survivor count not shown]
- T/C (dose: 8.0 mg/kg/injection, schedule: Q03HX008 (oral), vehicle: saline): 114 % of control [survivor count not shown]
- T/C (dose: 8.0 mg/kg/injection, schedule: Q03HX016 (ip), vehicle: saline): 203 % of control [survivor count not shown]
- T/C (dose: 8.0 mg/kg/injection, schedule: Q03HX016 (oral), vehicle: saline): 119 % of control [survivor count not shown]
- T/C (dose: 8.0 mg/kg/injection, schedule: Q03HX024 (oral), vehicle: saline): 148 % of control [survivor count not shown]
- T/C (dose: 8.0 mg/kg/injection, schedule: Q04DX003 (oral), vehicle: saline): 116 % of control [survivor count not shown]
- T/C (dose: 8.0 mg/kg/injection, schedule: Q08DX002 (ip), vehicle: saline): 205 % of control [survivor count not shown]
- T/C (dose: 8.0 mg/kg/injection, schedule: Q08DX002 (oral), vehicle: saline): 121 % of control [survivor count not shown]
- T/C (dose: 11.2 mg/kg/injection, schedule: Q01DX001 (sc), vehicle: saline): 138 % of control [survivor count not shown]
- T/C (dose: 12.8 mg/kg/injection, schedule: Q01DX001 (ip), vehicle: saline): 319 % of control [survivor count not shown]
- T/C (dose: 12.8 mg/kg/injection, schedule: Q01DX001 (oral), vehicle: saline): 127 % of control [survivor count not shown]
- T/C (dose: 12.8 mg/kg/injection, schedule: Q03HX008 (ip), vehicle: saline): 264 % of control [survivor count not shown]
- T/C (dose: 14.0 mg/kg/injection, schedule: Q01DX001 (ip), vehicle: carboxymethylcellulose (CMC)): 93 % of control [survivor count not shown]
- T/C (dose: 28.0 mg/kg/injection, schedule: Q01DX001 (ip), vehicle: carboxymethylcellulose (CMC)): 87 [survivor count not shown] and 94 % of control [survivor count not shown]
